Results are given in words; binding and its absence hold for the method and conditions named. Binding seen in cells or lysates may run through a third protein. Some binding calls cover weakened binding; strength is not graded here.
Assays:
[1] = molecular target: HopAU1-GFP fusion protein (Pseudomonas syringae pv. actinidiae strain M228) (UniProt G9I6Y2); experiment: co-IP; HopAU1-GFP and CaS-mCherry transiently co-expressed in N. benthamiana, total protein extracted after 2 days; incubated with anti-GFP magnetic beads (GFP-Trap, ChromoTek) for 2 h at 4 °C; western blot with anti-GFP and anti-mCherry
[2] = molecular target: HopAU1-cYFP (Pseudomonas syringae pv. actinidiae strain M228) (UniProt G9I6Y2); experiment: split reporter; BiFC: HopAU1-cYFP and nYFP-CaS co-expressed in N. benthamiana leaves by agroinfiltration; YFP read by confocal microscopy (excitation 514 nm, emission 530-575 nm)

The chains behind the UniProt entries cited, without tags or fusion partners.
UniProt G9I6Y2: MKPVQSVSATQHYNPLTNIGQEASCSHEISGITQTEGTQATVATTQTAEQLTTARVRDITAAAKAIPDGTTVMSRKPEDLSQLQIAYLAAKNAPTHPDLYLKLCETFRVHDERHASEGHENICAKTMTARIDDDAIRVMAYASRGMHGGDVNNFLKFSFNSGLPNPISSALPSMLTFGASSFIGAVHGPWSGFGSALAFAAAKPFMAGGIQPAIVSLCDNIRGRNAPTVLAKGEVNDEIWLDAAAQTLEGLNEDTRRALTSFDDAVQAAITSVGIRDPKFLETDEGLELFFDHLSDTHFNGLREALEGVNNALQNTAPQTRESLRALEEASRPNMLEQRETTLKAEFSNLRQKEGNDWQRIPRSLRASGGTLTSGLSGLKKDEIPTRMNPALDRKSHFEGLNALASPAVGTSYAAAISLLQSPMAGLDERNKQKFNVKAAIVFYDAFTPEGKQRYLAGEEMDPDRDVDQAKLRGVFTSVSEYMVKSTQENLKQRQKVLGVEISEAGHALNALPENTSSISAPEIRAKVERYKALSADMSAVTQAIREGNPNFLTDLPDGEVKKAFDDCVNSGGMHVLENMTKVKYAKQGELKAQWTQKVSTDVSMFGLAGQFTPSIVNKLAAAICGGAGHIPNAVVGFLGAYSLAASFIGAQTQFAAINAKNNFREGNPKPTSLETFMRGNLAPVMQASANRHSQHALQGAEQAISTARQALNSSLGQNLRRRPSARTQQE
UniProt K7ZLE1: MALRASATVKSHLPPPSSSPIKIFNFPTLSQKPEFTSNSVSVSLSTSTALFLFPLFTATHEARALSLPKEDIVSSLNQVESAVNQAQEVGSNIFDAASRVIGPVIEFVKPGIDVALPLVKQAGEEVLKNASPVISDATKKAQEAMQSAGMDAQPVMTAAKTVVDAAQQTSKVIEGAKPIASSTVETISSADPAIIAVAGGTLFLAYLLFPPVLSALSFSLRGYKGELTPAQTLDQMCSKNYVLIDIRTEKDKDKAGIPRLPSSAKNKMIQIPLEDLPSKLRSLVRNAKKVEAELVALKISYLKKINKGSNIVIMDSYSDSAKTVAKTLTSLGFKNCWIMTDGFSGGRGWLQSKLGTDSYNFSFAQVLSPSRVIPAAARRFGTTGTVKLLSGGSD

Substance	binding [1]	binding [2]
CaS-mCherry (calcium sensing receptor of N. benthamiana, NbCaS) (from UniProt K7ZLE1 1-394)	binds	–
nYFP-CaS (calcium sensing receptor of N. benthamiana) (from UniProt K7ZLE1 1-394)	–	binds
